Test results from publication PMC5974179.
No constants are given. Whether binding was seen depends on the method and setting. In cells and extracts the contact can be indirect. A yes stands for co-enrichment or nearness to the bait. Other partners may have been found.

The chains behind the UniProt entries cited, without tags or fusion partners.
UniProt P08670: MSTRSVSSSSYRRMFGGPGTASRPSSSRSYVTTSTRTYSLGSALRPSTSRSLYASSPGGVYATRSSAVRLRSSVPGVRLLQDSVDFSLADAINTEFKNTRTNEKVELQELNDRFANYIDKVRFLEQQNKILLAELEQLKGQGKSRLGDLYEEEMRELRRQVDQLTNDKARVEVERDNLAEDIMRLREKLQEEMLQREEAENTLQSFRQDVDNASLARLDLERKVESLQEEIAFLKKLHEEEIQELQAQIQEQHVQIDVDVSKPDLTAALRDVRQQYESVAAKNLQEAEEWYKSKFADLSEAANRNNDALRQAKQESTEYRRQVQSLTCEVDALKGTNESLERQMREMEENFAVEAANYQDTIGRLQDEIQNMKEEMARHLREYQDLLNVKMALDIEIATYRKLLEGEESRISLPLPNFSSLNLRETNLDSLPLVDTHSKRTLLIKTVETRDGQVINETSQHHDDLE

Target: T1, Follistatin-like protein 1 (FSTL1) (human (endogenous in SW480)) (UniProt Q12841)
T1 sequence: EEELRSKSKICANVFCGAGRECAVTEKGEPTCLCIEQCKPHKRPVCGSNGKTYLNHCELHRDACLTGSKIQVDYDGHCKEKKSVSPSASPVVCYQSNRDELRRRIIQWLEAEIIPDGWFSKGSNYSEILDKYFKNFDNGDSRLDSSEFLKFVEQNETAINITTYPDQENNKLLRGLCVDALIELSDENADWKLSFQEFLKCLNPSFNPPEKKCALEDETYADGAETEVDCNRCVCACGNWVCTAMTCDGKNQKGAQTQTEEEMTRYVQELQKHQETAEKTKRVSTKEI
Test: affinity purification with mass spectrometry; whole-cell lysate of SW480 cells immunoprecipitated with FSTL1 antibody; silver stain; the differential band analysed by mass spectrometry

binding: binds
Substance: VIM (from UniProt P08670 1-466)
